Measured values as given in article PMC7038599.

Molecular target: T1, poSn helical transmembrane plus cytoplasmic domain, myc-his tagged (poSn-TCD-myc-his) (pig) (UniProt A7LCJ3)
T1 sequence: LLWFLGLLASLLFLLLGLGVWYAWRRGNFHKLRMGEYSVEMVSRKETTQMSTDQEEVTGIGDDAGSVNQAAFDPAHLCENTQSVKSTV
Assay: co-IP; HEK-293T cells co-transfected for 48 h; whole cell lysates in IP lysis buffer mixed with anti-myc or anti-Flag mAb and Protein A/G beads at 4 °C for 3 h or overnight; washed with TBST; eluted with 0.05 M glycine-HCl pH 2.2; immunoblot

For DAP12-D50A (3×Flag tagged) (pig), the binding was “binds”.

Results are given in words; binding and its absence hold for the method and conditions named. In cells and extracts the contact can be indirect. Binding can be weak; no strength is given. Tags and fused reporters may be left off the sequences shown.
